# Laboratory results reported in patent US10953028B2, “Method of treating heterotopic ossification” (THE REGENTS OF THE UNIVERSITY OF MICHIGAN, priority 2015, dated 2021).
# “Also recorded” adds a separate entry of the source. For at least one compound, name, drawing or mass did not settle the structure.
# System: caACVR1fl/fl mice injected with cardiotoxin and Ad.cre
# Settings: mouse, in vivo
compound,measurement,value
CO[C@H]1C[C@@H]2CC[C@@H](C)[C@@](O)(O2)C(=O)C(=O)N2CCCC[C@H]2C(=O)O[C@H]([C@H](C)C[C@@H]2CC[C@@H](O)[C@H](OC)C2)CC(=O)[C@H](C)/C=C(\C)[C@@H](O)[C@@H](OC)C(=O)[C@H](C)C[C@H](C)/C=C/C=C/C=C/1C [rapamycin],HO presence on microCT (binary yes/no analysis),no evidence of HO; also recorded: complete absence of HO
